Test results published in article PMC6982817, “Substituted N-(Pyrazin-2-yl)benzenesulfonamides; Synthesis, Anti-Infective Evaluation, Cytotoxicity, and In Silico Studies” (Molecules, 2019).
In brackets after ≈: the same amount, converted by molar mass.

Legend:
[1] = test system: Candida albicans CCM 8320 (ATCC 24433); experiment: Antifungal microdilution broth, C. albicans; format: cell-based; settings: 48 h, read-out: MIC against Candida albicans
[2] = test system: Aspergillus fumigatus ATCC 204305; experiment: Antifungal microdilution broth, A. fumigatus; format: cell-based; settings: ATCC204305, 48 h, read-out: MIC against Aspergillus fumigatus

Compound: C[C@@H]1[C@H](O)[C@@H](C)/C=C/C=C/C=C/C=C/C=C/C=C/C=C/[C@H](O[C@@H]2O[C@H](C)[C@@H](O)[C@H](N)[C@@H]2O)C[C@@H]2O[C@](O)(C[C@@H](O)C[C@@H](O)[C@H](O)CC[C@@H](O)C[C@@H](O)CC(=O)O[C@H]1C)C[C@H](O)[C@H]2C(=O)O [amphotericin B]
- MIC [1]: 0.5 µg/mL (≈ 0.541 µM)
- MIC [2]: 1 µg/mL (≈ 1.08 µM)
